Experimental data taken from publication PMC7819943, “Rice protein-binding microarrays: a tool to detect cis-acting elements near promoter regions in rice”.
This is one part of the list.

Biological target: T1, OsSMF1 (Oryza sativa, UniProt Q6ZLB0 1-436)
T1 sequence: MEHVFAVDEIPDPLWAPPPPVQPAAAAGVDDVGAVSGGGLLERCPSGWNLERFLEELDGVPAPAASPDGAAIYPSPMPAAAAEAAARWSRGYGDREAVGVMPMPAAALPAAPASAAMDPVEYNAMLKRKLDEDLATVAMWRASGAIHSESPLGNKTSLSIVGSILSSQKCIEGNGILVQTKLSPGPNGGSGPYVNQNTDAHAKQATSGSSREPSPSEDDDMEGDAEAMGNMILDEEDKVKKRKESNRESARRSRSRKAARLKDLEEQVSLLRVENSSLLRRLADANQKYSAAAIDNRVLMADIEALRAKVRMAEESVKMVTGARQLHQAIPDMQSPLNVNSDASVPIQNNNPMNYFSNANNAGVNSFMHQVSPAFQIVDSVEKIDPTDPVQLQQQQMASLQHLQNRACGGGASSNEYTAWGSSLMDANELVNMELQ
Experiment: protein-binding microarray (RPBM); PBS, 2% BSA, 51.3 ng/ul salmon testes DNA, 50 uM zinc acetate, 200 nM TF, 25 C, 1 h; high values mean tight binding
Settings: protein: recombinant; tags: N-terminal polyhistidine and DsRed monomer fusion (pET32a); chain copies: 2; label: CyDye5-dUTP incorporated in the synthesized complementary strand; 3' TTTTT single-stranded linker to array surface; dsDNA, one strand shown
In short: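 The binding signal is fluorescence intensity per array feature (arbitrary units). Readings came from an Axon 4000B scanner after a washed, 2% BSA-blocked, double-stranded custom Agilent array had been incubated for 1 h at 25 °C with 200 nM protein and 50 µM zinc acetate. The protein was a Ni–NTA-purified transcription factor fused N-terminally to polyhistidine and DsRed, expressed in E. coli BL21-CodonPlus.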

Sequence	binding signal
GACTCCCGCGTGCTCGCCGCGCCGCCCACCGTCACCGCCTCGGAGTCACCTAGTGCAG	3230 fluorescence intensity (a.u.)
CTAACACATGCAATAATTCGTGCCGATATCGAGATCGATCCGGAGTCACCTAGTGCAG	3580 fluorescence intensity (a.u.)
AACGATGGCGTCCTCGCGTATAAATTCATCGCCCGTGCACCGGAGTCACCTAGTGCAG	3620 fluorescence intensity (a.u.)
AGATGTGATACATTAGCATTCTAGCACGGCGGTGGCATTGCGGAGTCACCTAGTGCAG	3250 fluorescence intensity (a.u.)
CTCACTTCCATACGCGGCCCGCCGCACGGGTGCGCATCTCCGGAGTCACCTAGTGCAG	3310 fluorescence intensity (a.u.)
AACCGGGACTAAAGATCGTACCTTTAGTTACGATCTTTAGCGGAGTCACCTAGTGCAG	28500 fluorescence intensity (a.u.)
CTAACCGCAACTGCCACCTCACGCAAACGGGCTCGCTGGTCGGAGTCACCTAGTGCAG	5110 fluorescence intensity (a.u.)
GGTTTGGATGGAGCTGGAGGTGGGTGAGTTCTTCCACAACCGGAGTCACCTAGTGCAG	3260 fluorescence intensity (a.u.)
TAAAATTTAATTCATATTATACTAATTATTGGTCAAATATCGGAGTCACCTAGTGCAG	3230 fluorescence intensity (a.u.)
AGCAACAGCGGGTCACCGCCTCCTCGTGTTCTCTCTGCTGCGGAGTCACCTAGTGCAG	3550 fluorescence intensity (a.u.)
TTAAATTGGTTCAATTGATGTCGACGTTACTATATTTTACCGGAGTCACCTAGTGCAG	3220 fluorescence intensity (a.u.)
TTGTGAATGTCCTAATGACTAGGCTGCCGTGTCAGTCAATCGGAGTCACCTAGTGCAG	7830 fluorescence intensity (a.u.)
GAGGCTGCTAGGCGACGTGCGGCCGTCGTGGCAGCGGTGCCGGAGTCACCTAGTGCAG	6300 fluorescence intensity (a.u.)
CTCCCGTAGAGATGCAGATACCGTCACAACCTACAACCAACGGAGTCACCTAGTGCAG	4050 fluorescence intensity (a.u.)
TAAGTCAACAAGCTATGACAGTAGAAATCACTGTCAATACCGGAGTCACCTAGTGCAG	3530 fluorescence intensity (a.u.)
CGTCCATGAGCTGTTAGCTGACATCCTTTTGCTGTATTGACGGAGTCACCTAGTGCAG	4450 fluorescence intensity (a.u.)
TTAGGATAGTTTAATACTGAGATGATACGTTTATGCCGGTCGGAGTCACCTAGTGCAG	3200 fluorescence intensity (a.u.)
AAAAGATCCCCTATACTGTAAAGTCAGCAAATCCATGTGGCGGAGTCACCTAGTGCAG	4560 fluorescence intensity (a.u.)
GATCAATCACAGAGCAAAGCAGCCATTCCTCACGTCACGTCGGAGTCACCTAGTGCAG	5470 fluorescence intensity (a.u.)
CTCTGGATATATTAATGGATTCTGGATAATGTCCTAGCGGCGGAGTCACCTAGTGCAG	4070 fluorescence intensity (a.u.)
AACAGCTCAATTAATTAATCGCCCACACCGAAGCGCGCACCGGAGTCACCTAGTGCAG	39800 fluorescence intensity (a.u.)

Sequence	binding signal
AACAAAGCCAACGTCCCACCACCACCACACGCGCGCGCTCCGGAGTCACCTAGTGCAG	3240 fluorescence intensity (a.u.)
ATCTTGACAAATATTATCTCAATAACAGGTCACTGAGATGCGGAGTCACCTAGTGCAG	3250 fluorescence intensity (a.u.)
TTAGAGGACACATTCGTGTGGATGTGACTGTGGTGTTGCGCGGAGTCACCTAGTGCAG	3300 fluorescence intensity (a.u.)
AACAAATTCAAACAATTATTCTGACTTCGCCACCTATCGACGGAGTCACCTAGTGCAG	3780 fluorescence intensity (a.u.)
GAGGCCGACGGCGACGGCCTCGTGGCTCTTGGCAACGCCCCGGAGTCACCTAGTGCAG	3500 fluorescence intensity (a.u.)
GAACACACGATTTGTCAATATCCACGTTAGCTAGCAAAAGCGGAGTCACCTAGTGCAG	4600 fluorescence intensity (a.u.)
ATCATCCCTGTCCCTGTCCGACGTGGCCGTCCCACGTGGCCGGAGTCACCTAGTGCAG	33700 fluorescence intensity (a.u.)
ACATCTCACATGATGAGGATGAGTCGTCGTCGTTTGCAATCGGAGTCACCTAGTGCAG	3570 fluorescence intensity (a.u.)
CAGTAACCACGTCCTCTAACTTTACGTCAGATGATCTCAACGGAGTCACCTAGTGCAG	4790 fluorescence intensity (a.u.)
TGCTGCCCCGCCAACATCGTGTTGAATCTCGTCGATATATCGGAGTCACCTAGTGCAG	3510 fluorescence intensity (a.u.)
AACTTAAAAGCCAACTTAAACACGTATGATGTATCACAGTCGGAGTCACCTAGTGCAG	6920 fluorescence intensity (a.u.)
CGCTCCCGCTACCCCACCACACGCGTCATGAGGCATCCAGCGGAGTCACCTAGTGCAG	4440 fluorescence intensity (a.u.)
AGGAGATGGGGCGCTGGCCACGTGGAACCCCGCGCGCTTTCGGAGTCACCTAGTGCAG	8060 fluorescence intensity (a.u.)
GGGAGTTCATACTTAAACATGTAGTTTGTACTATTTATCTCGGAGTCACCTAGTGCAG	5080 fluorescence intensity (a.u.)
TAGGCGGGGTCCATGCGGGTCCCATACTGACTCAGCCGCCCGGAGTCACCTAGTGCAG	8670 fluorescence intensity (a.u.)
CCAAATCAAATTGCCACGTCAATGCCACATCGATGCCACACGGAGTCACCTAGTGCAG	19700 fluorescence intensity (a.u.)
TCTCTCTTTCTGATGACTACACTTATTTGTTCTGATATCACGGAGTCACCTAGTGCAG	3180 fluorescence intensity (a.u.)
AGCAGCGGAGAGATGATGACAACGTACGGCGATGGTGGAACGGAGTCACCTAGTGCAG	3400 fluorescence intensity (a.u.)
CCTGATCGCCTCCTCCGCCACCGCCGTGTTCGATTCGTCTCGGAGTCACCTAGTGCAG	3260 fluorescence intensity (a.u.)
TTATCTTGGTGTCATACAGGTTATAATCGAAAGATCTATGCGGAGTCACCTAGTGCAG	3470 fluorescence intensity (a.u.)
GATGGAGAATTGAGGAAGGAACTCCTTTCTTTTCAATACCCGGAGTCACCTAGTGCAG	3400 fluorescence intensity (a.u.)

Part of the list above, in markdown.

| Sequence | binding signal |
| --- | --- |
| CTCACTTCCATACGCGGCCCGCCGCACGGGTGCGCATCTCCGGAGTCACCTAGTGCAG | 3310 fluorescence intensity (a.u.) |
| AGGAGATGGGGCGCTGGCCACGTGGAACCCCGCGCGCTTTCGGAGTCACCTAGTGCAG | 8060 fluorescence intensity (a.u.) |
